In one data set the target is Histone deacetylase 1 (Homo sapiens, UniProt Q13547). The data set can be described thus: biochemical.
Data set [1] has as its target T1, Protein deacetylase HDAC6 (Homo sapiens, UniProt Q9UBN7).
T1 sequence (Q9UBN7 whole entry): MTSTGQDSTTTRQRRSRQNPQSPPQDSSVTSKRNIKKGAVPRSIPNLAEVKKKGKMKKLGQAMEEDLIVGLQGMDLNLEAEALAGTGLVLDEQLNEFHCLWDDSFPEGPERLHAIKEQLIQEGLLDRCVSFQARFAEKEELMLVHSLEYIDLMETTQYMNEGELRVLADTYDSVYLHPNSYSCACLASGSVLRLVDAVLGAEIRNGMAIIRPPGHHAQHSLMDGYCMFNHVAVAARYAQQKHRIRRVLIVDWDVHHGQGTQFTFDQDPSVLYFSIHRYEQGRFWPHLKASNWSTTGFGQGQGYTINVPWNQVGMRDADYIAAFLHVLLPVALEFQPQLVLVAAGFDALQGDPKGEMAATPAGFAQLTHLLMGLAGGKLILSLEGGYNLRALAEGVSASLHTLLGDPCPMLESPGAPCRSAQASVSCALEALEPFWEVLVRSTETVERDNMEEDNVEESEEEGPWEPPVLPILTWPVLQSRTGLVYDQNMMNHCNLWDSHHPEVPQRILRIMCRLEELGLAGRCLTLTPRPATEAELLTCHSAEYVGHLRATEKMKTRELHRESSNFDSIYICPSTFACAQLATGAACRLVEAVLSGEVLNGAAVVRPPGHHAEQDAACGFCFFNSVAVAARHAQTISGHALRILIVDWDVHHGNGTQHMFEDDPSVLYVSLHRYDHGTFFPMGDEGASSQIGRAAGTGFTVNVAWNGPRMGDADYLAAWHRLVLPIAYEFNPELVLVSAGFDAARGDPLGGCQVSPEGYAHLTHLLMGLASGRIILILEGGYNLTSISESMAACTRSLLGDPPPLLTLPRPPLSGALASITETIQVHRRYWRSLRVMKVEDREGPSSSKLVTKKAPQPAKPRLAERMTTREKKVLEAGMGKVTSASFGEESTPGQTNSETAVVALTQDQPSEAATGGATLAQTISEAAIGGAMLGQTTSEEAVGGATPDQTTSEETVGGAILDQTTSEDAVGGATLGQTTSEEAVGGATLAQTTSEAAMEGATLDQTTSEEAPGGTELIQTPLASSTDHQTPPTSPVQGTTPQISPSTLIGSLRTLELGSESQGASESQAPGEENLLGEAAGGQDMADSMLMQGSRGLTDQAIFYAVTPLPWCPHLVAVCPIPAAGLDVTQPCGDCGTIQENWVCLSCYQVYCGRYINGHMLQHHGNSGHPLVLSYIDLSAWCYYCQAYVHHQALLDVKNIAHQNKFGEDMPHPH

Sequences of proteins named here, by UniProt entry; tags and fusion partners are left off. A change or cut given only in a name is not applied to a line headed by its entry.
UniProt Q13547, whole entry: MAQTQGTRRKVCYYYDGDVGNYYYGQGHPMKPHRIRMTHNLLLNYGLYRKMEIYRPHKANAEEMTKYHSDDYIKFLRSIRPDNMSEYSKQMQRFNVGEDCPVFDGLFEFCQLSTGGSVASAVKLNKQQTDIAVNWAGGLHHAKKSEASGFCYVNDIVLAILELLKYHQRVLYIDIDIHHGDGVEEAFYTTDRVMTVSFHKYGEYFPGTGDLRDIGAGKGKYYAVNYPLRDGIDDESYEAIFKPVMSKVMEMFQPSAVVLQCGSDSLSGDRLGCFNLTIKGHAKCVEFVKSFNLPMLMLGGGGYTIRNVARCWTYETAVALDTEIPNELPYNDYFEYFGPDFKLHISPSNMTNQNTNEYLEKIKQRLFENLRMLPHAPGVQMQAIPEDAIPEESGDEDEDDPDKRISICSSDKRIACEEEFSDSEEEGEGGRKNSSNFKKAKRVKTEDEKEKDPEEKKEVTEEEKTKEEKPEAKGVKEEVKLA
UniProt Q12809: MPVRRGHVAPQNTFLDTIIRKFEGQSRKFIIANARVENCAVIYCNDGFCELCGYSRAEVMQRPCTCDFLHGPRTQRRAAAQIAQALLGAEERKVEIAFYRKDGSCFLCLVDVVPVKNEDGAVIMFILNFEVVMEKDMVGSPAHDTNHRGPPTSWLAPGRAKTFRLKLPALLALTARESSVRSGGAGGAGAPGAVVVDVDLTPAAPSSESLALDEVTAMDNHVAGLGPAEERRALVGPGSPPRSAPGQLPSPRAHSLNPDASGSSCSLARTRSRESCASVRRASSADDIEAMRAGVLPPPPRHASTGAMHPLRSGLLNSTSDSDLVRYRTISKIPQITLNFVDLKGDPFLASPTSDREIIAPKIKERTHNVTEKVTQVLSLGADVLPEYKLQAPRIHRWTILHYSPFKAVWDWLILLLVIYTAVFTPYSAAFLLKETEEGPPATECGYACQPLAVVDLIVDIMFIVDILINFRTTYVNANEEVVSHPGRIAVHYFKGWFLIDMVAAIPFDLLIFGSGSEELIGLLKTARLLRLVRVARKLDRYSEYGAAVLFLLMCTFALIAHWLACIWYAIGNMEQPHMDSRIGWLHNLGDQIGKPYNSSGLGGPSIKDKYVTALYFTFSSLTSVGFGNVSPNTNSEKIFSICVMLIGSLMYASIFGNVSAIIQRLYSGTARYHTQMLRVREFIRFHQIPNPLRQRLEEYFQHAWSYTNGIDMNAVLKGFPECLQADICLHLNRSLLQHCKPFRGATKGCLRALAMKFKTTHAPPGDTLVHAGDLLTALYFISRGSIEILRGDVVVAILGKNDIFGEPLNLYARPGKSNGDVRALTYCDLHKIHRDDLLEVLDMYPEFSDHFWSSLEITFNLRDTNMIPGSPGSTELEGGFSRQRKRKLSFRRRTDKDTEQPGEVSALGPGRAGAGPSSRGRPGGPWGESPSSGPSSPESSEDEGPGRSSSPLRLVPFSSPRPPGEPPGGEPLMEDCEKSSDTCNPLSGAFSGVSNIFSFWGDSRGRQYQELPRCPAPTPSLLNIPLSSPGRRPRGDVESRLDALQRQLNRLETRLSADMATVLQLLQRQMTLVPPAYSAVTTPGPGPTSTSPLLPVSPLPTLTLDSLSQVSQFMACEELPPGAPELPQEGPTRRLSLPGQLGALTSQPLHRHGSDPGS

The nature of data set [2]: in vivo. The conditions noted are these: Wistar-Han, rat, iv, 0.5 mg/kg.
A short description of data set [3]: in vivo. The conditions noted are these: Wistar-Han, rat, iv, 0.5 mg/kg. The source holds these as a separate data set.
Data set [4] can be described thus: in vivo. As to conditions: Wistar-Han, rat, iv, 0.5 mg/kg. This is another data set of the same source.
Data set [5] in a line: in vivo. As to conditions: Wistar-Han, rat, iv, 0.5 mg/kg. This is another data set of the same source.
Data set [6] deals with Voltage-gated inwardly rectifying potassium channel KCNH2 (Homo sapiens, UniProt Q12809).

Usually IC50 stands for the concentration that gives 50% inhibition. Usually half-life stands for the time in which the quantity being followed falls by half. Read a low half-life as fast loss. Broadly, the AUC is the area under the concentration-time curve, a measure of exposure. Lower therefore signals less exposure. In general, Vd refers to a proportionality between amount in the body and measured concentration, not a real space. The clearance is the volume of plasma or blood freed of the substance per unit of time. Read a low clearance as a low capacity for elimination.

Bounds are passed on as bounds.

The compound `O=C(N[C@@H](CCCCNC(=O)c1ccccc1OC(F)(F)F)c1ncc(-c2ccc3ccccc3c2)[nH]1)c1cncs1` displayed an IC50 at Histone deacetylase 1 of more than 45 µM. The same measure, in the same setting: as for `CCc1ccccc1C(=O)NCCCC[C@H](NC(=O)c1cncs1)c1ncc(-c2ccc3ccccc3c2)[nH]1`, the figure is more than 45 µM. With `COc1cccc(O)c1C(=O)NCCCC[C@H](NC(=O)c1cncs1)c1ncc(-c2ccc3ccccc3c2)[nH]1`, the half-inhibitory concentration (IC50) in data set [1] was more than 45 µM. `COc1nc2ccccc2cc1-c1nnc([C@H](CCCCNC(=O)c2ccccc2SC)NC(=O)c2cncs2)o1` had a half-life in the data set “in vivo [2]” of 21 min. Further, the AUC in “in vivo [3]” was 0.029 µM·h. Also, the distribution volume (Vd) in “in vivo [4]” is 1.3 L/kg. Moreover, the clearance in the data set “in vivo [5]” came to 49 mL/min/kg. Moreover, the IC50 against Histone deacetylase 1 was more than 45 µM.

Take `O=C(N[C@@H](CCCCNC(=O)c1ccccc1Cl)c1ncc(-c2ccc3ccccc3c2)[nH]1)c1cncs1`: the IC50 against Histone deacetylase 1 was more than 45 µM.

At Histone deacetylase 1, `O=C(N[C@@H](CCCCNC(=O)c1ccccc1OCC(F)(F)F)c1ncc(-c2ccc3ccccc3c2)[nH]1)c1cncs1` yielded a concentration for half-maximal inhibition (IC50) of more than 45 µM. Still for that read-out and setting: as for `CCSc1ccccc1C(=O)NCCCC[C@H](NC(=O)c1cncs1)c1ncc(-c2ccc3ccccc3c2)[nH]1`, the figure is more than 45 µM; as for `N#Cc1ccccc1C(=O)NCCCC[C@H](NC(=O)c1cncs1)c1ncc(-c2ccc3ccccc3c2)[nH]1`, more than 45 µM; as for `O=C(N[C@@H](CCCCNC(=O)c1cccc2c1CCC2)c1ncc(-c2ccc3ccccc3c2)[nH]1)c1cncs1`, more than 45 µM. As to `COc1nc2ccccc2cc1-c1cnc([C@H](CCCCNC(=O)c2ccccc2SC)NC(=O)c2cncs2)[nH]1`, the half-life in “in vivo [2]” is 19.2 min. In the data set “in vivo [3]”, this compound yielded an AUC of 0.049 µM·h. The Vd in the data set “in vivo [4]” came out at 0.86 L/kg. For the same compound, in the data set “in vivo [5]”, the clearance was determined as 29 mL/min/kg. The IC50 against Histone deacetylase 1 is more than 45 µM; in data set [6], 1.33 µM.

Values taken from ChEMBL document CHEMBL4725494 (ACS Med Chem Lett, 2020).
